No constants are given. Whether binding was seen depends on the method and setting. Binding seen in cells or lysates may run through a third protein. These calls come from enrichment with a bait or labelling near it, and not all partners need be listed.
Legend:
[1] = biological target: T1, high-molecular mass rhoptry protein 3 (PfRhopH3) (P. falciparum (endogenous in NF54 schizonts)) (UniProt Q8I395); experiment: affinity purification with mass spectrometry; late schizont lysate (50 mM Tris-HCl, 0.2 M NaCl, 5 mM EDTA, 0.2% NP-40, pH 7.4) passed over a monoclonal antibody-conjugated Formyl-Cellulofine column; eluate on 10% SDS-PAGE, bands excised, trypsin, LC-MS/MS
T1 sequence: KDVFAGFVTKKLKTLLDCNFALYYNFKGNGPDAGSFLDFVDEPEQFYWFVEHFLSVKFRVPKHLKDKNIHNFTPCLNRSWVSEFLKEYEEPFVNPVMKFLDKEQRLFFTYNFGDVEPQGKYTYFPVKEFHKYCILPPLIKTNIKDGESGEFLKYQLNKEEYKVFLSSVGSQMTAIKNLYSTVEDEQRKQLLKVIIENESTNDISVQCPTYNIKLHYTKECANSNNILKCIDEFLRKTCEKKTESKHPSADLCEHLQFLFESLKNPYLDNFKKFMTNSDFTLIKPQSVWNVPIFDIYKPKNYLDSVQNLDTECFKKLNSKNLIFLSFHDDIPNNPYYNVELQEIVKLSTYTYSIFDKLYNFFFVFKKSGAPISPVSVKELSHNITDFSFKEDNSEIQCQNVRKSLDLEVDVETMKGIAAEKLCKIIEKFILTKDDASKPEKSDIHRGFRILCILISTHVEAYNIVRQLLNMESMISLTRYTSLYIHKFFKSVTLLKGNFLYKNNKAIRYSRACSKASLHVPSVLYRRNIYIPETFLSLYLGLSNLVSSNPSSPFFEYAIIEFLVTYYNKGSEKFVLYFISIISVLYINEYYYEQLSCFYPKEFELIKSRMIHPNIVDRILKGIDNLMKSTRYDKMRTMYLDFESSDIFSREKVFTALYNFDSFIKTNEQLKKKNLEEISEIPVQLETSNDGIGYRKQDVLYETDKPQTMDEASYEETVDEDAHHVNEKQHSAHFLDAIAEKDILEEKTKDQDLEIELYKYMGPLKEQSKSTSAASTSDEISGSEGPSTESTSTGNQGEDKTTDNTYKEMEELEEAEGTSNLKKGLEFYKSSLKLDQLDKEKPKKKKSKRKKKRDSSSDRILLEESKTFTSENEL

Chains of the proteins cited; added tags and fusions are not shown. Residues count along the entry.
UniProt O77310, residues 25-1417: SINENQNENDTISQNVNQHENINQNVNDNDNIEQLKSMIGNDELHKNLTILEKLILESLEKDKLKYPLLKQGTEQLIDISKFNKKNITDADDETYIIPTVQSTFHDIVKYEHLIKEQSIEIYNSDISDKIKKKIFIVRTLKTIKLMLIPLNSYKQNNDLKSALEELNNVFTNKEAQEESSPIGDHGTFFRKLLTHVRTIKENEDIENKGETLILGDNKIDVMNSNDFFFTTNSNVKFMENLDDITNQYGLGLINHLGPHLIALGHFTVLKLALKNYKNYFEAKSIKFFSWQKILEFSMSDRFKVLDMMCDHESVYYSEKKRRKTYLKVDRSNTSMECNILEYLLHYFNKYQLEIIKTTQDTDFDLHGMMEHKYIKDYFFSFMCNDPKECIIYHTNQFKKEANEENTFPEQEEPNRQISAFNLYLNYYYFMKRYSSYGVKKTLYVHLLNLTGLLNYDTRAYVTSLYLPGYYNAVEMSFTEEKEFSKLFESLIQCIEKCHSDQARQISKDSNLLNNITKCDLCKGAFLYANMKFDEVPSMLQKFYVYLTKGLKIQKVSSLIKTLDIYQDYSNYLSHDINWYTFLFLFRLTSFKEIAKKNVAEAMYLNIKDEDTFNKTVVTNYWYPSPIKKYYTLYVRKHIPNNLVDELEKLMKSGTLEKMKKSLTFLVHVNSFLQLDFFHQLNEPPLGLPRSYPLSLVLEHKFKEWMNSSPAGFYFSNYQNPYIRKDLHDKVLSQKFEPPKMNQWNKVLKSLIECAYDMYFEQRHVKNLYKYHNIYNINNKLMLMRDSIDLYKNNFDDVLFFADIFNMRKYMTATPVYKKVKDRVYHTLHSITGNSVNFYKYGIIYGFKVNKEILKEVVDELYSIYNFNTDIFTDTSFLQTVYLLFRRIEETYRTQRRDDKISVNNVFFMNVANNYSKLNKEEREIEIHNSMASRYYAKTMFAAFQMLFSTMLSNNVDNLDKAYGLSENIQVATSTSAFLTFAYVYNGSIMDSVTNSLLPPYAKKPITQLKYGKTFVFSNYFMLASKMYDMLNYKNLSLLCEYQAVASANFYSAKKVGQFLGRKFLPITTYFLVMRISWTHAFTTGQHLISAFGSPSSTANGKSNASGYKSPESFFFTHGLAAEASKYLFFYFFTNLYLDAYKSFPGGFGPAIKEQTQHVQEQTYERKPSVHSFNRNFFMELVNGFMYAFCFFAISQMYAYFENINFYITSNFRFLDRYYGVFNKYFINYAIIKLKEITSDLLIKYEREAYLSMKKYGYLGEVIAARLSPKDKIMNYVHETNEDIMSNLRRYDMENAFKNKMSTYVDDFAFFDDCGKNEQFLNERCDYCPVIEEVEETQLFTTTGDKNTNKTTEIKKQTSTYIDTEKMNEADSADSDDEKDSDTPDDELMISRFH

[2] = biological target: T2, high-molecular mass rhoptry protein 2 (PfRhopH2) (P. falciparum (endogenous in NF54 schizonts)) (UniProt C0H571); experiment: as above
T2 sequence: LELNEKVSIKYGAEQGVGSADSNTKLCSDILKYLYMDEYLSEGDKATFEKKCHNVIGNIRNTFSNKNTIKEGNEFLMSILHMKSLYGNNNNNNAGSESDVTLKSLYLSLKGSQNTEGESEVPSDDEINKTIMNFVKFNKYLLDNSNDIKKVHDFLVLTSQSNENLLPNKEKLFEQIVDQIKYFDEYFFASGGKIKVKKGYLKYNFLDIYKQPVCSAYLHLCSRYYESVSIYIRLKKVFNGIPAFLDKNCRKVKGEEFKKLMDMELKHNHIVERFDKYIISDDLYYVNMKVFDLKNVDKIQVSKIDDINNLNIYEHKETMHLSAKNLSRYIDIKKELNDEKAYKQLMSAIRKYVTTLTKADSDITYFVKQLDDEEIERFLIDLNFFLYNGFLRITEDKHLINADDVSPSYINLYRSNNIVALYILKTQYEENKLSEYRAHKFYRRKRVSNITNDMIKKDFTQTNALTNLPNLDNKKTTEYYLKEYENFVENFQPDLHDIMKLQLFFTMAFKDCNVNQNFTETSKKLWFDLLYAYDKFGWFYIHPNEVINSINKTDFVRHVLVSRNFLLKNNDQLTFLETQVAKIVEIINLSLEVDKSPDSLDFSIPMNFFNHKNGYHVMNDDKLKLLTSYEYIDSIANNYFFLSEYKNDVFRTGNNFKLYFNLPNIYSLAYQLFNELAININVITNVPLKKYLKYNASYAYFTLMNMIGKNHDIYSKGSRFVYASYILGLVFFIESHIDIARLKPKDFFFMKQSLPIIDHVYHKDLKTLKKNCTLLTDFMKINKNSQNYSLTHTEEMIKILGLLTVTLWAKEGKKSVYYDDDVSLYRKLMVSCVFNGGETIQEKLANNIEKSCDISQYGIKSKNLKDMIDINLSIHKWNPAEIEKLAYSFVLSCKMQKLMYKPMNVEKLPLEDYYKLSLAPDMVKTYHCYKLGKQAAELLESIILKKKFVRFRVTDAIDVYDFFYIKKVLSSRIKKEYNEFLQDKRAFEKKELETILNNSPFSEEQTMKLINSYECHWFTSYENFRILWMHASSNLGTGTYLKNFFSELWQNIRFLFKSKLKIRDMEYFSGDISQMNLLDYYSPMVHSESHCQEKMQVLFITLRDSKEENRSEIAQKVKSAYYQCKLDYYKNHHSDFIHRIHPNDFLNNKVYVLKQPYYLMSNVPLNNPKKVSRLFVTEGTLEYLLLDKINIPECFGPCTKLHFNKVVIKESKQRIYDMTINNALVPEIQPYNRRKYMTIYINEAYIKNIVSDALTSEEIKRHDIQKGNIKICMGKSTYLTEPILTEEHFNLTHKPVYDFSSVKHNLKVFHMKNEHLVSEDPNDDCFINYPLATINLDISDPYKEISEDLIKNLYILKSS

Clag3.1 (cytoadherence-linked asexual gene 3.1 protein, PfRhopH1/Clag) (from UniProt O77310 25-1417)
binding [1]: binds

Clag9 (cytoadherence-linked asexual gene 9 protein, PfRhopH1/Clag)
binding [2]: binds
binding [1]: binds

B1: high-molecular mass rhoptry protein 3 (PfRhopH3) (protein, UniProt Q8I395 25-897)
chain: T1 sequence
binding [2]: binds

— article PMC7848174
